Source: PubChem BioAssay AID1688 (National Center for Advancing Translational Sciences (NCATS), 2009)
About 2,400 (1.1%) of roughly 220,000 compounds were called active. Inconclusive means that the source gave no clear call. Such entries were picked first, then a sample of the others. Calls follow the shape of the dose curve; as a rule, active = well fitted inhibition curve with a large enough effect; inconclusive = small, poorly fitted or top-dose-only effect, or effect the other way; inactive = no such curve, though single readings can be large or run the other way. Potencies beside an inconclusive call are fits to weak or partial responses and may not hold up.

Test: qHTS Multiplex Assay to Identify Dual Action Probes in a Cell Model of Huntington: Aggregate Formation (GFP); also: nearly all actives have a fitted effect of over 60% in size
Conditions: PC12 HttQ103-GFP aggregates, Acumen cytometry, 40 h; activity change, negative = inhibition: at 46.1 µM (top of the series) unless noted
Summary of the method: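 Steps: seed 1500 PC12 HTTQ103-GFP cells/well; add tebufenozide, 100 nM final; add compound titration; add ATPLite reagent; quantify GFP aggregates by laser scanning cytometry.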
% is scaled to controls: 0 for no effect and ±100 for the full control effect; potency is read from the fitted curve at half-maximal effect.

| Structure (SMILES) | Potency | activity change, negative = inhibition |
| --- | --- | --- |
| CC1Cc2ccccc2N1C(=O)C1CCCN(S(=O)(=O)c2cccc3cccnc23)C1 (stereo not given) | inconclusive: 35.5 µM [inhibitor, single point] | – |
| Brc1ccc2cccnc2c1 | inconclusive: 2.51 µM [inhibitor, partial curve] | – |
| CN(NS(=O)(=O)c1ccc(Cl)cc1)c1nc(C(F)(F)F)nc2ccccc12 | active: 10 µM | – |
| O=C1/C(=C/c2ccccc2)Nc2ccccc21 | inconclusive: 35.5 µM [inhibitor, single point] | – |
| O=C(NNC(=S)Nc1cccc(C(F)(F)F)c1)c1ccccc1Cl | inconclusive: 3.55 µM [inhibitor, full curve] | – |
| CCC1CSC(Nc2ccc(C(=O)/C=C/c3ccc(OC)c(OC)c3)cc2)=N1 (stereo not given) | inconclusive: 35.5 µM [inhibitor, single point] | – |
| O=C(Nc1ccc2c(c1)OCCO2)C1CCN(C(=O)c2ccc([N+](=O)[O-])cc2)CC1 | – | inactive: 8.45% |
| O=C(CSc1n[nH]c(=O)[nH]c1=O)N/N=C/c1ccccc1O | – | inactive: 9.59% |
| CCC(=O)N1CCc2cc(S(=O)(=O)NCCC(=O)N3CCc4ccccc4C3)ccc21 | inconclusive: 10 µM [inhibitor, partial curve] | – |
| COc1ccc(C(=O)CSc2nc3ccc([N+](=O)[O-])cc3[nH]2)cc1 | inconclusive: 3.55 µM [inhibitor, single point] | – |
| COc1cc([N+](=O)[O-])cc(/C=N/NC(=O)c2ccc(C)nc2)c1O | inconclusive: 10 µM [inhibitor, partial curve] | – |
| NS(=O)(=O)c1ccc(CNC(=O)Cc2c(F)cccc2Cl)cc1 | inconclusive: 1.26 µM [activator, partial curve] | – |
| COc1cc(NC(=O)C2COc3ccccc3O2)c(OC)cc1Cl (stereo not given) | inconclusive: 35.5 µM [inhibitor, single point] | – |
| CC(O)CN(CCN(CC(C)O)CC(C)O)CC(C)O (stereo not given) | – | inactive: -12% |
| O=C(CC(Nc1ccc(F)cc1)C(=O)OCC(=O)c1cccs1)c1ccccc1 (stereo not given) | inconclusive: 35.5 µM [activator, single point] | – |
| Cc1cc[n+](-c2nc3ccccc3nc2C(=C=[N-])C#N)cc1 | – | inactive: 6.51% |
| Cc1c([N+](=O)[O-])c2ccc(O)cc2n1-c1ccccc1 | inconclusive: 5.01 µM [inhibitor, single point] | – |
| CC1(C)CC(=O)C2=C(C1)NC1=C(C(=O)c3ccccc31)C2c1ccccc1 (stereo not given) | – | inactive: -15.2% |
| O=C(NN1C(=O)/C(=C/c2cccs2)SC1=S)c1ccccc1 | – | inactive: 16.5% |
| CCCCCOP(=O)(c1ccccc1)c1ccccc1 | – | inactive: -14.3% |
| CCN(C(=O)c1cc2cc3ccc(C)cc3nc2o1)c1ccc(OC)cc1 | inconclusive: 35.5 µM [activator, single point] | – |
| Cc1csc(NC(=O)c2cc3c(s2)CCCCC3)n1 | inconclusive: 35.5 µM [inhibitor, single point] | – |
| Cc1ccc(N=Nc2c(C)[nH]n(C(N)=S)c2=O)cc1C | – | inactive: 8.95% |

| Structure (SMILES) | Potency | activity change, negative = inhibition |
| --- | --- | --- |
| COC(=O)C(CC(=O)c1ccc(Br)cc1)n1ccnc1 (stereo not given) | inconclusive: 17.8 µM [activator, single point] | – |
| O=C(O)CCC(=O)Nc1ccc(Oc2ncnc3cc(Cl)ccc23)nc1 | – | inactive: -3.7% [at 9.22 µM] |
| Cc1cc(S(=O)(=O)N2CCN(C(=O)CCC(=O)N3CCOCC3)CC2)ccc1Br | – | inactive: -16.2% [at 9.22 µM] |
| CN1/C(=C\P(=O)(N(C)C)N(C)C)C(C)(C)c2ccccc21 | active: 11.2 µM | – |
| N#Cc1cc(NC(=O)c2ccc(F)cc2)c(=O)n2c1[nH]c1ccccc12 | active: 14.1 µM | – |
| Cc1cc(C(=O)CN2C(=O)NC3(CCCC3)C2=O)c(C)n1-c1ccc2c(c1)OCO2 | inconclusive: 35.5 µM [inhibitor, single point] | – |
| Brc1ccc(OCc2ccccc2)c(CNCc2ccncc2)c1 | inconclusive: 35.5 µM [inhibitor, single point] | – |
| Cc1ccc(NC(=O)CSc2nnc(-c3cnccn3)n2-c2ccccc2)cc1 | – | inactive: 3.43% |
| COc1ccc(Nc2cc(C(=O)N3CCc4ccccc4C3)c3ccccc3n2)c(OC)c1 | inconclusive: 35.5 µM [inhibitor, single point] | – |
| COc1ccccc1NC(=O)c1c(Br)cnn1C | inconclusive: 15.8 µM [inhibitor, single point] | – |
| COc1ccc2[nH]c(C)c(CCNC(=S)Nc3cccc(C)c3)c2c1 | inconclusive: 35.5 µM [inhibitor, single point] | – |
| CCC(=O)c1ccc(OCC(O)Cn2c(C)nc3ccccc32)cc1 (stereo not given) | active: 11.2 µM | – |
| COc1cc(/C=C/C(=O)NC(C)C)ccc1OCc1ccccc1 | inconclusive: 35.5 µM [activator, single point] | – |
| Cc1occc1C(=O)Nc1cc(C(C)(C)C)on1 | inconclusive: 35.5 µM [inhibitor, partial curve] | – |
| Cc1ccc(C)c(Oc2cc(NC(=O)CCCn3nc(C)c([N+](=O)[O-])c3C)cc([N+](=O)[O-])c2)c1 | inconclusive: 1.26 µM [inhibitor, single point] | – |
| O=C(c1cc(Sc2ccc(Cl)cc2)nc2ccccc12)N1CCN(c2ccccn2)CC1 | inconclusive: 35.5 µM [inhibitor, single point] | – |
| Cn1ccnc1Sc1cc(NCCCO)c([N+](=O)[O-])c2nonc12 | inconclusive: 22.4 µM [inhibitor, single point] | – |
| CC(C)Cn1c2c(c(O)c(C(=O)Nc3nccs3)c1=O)CCCC2 | inconclusive: 35.5 µM [inhibitor, single point] | – |
| CCOC(=O)C1=C(c2ccccc2)OC(N)=C(C#N)C1c1ccc(Br)s1 (stereo not given) | inconclusive: 17.8 µM [activator, single point] | – |
| Cc1nc(N2CCN(Cc3ccc4c(c3)OCO4)CC2)nc2c1C(=O)CC(c1ccco1)C2 (stereo not given) | inconclusive: 17.8 µM [inhibitor, single point] | – |
| CCc1cc(C(=O)NNC(=S)Nc2ccccc2C)cs1 | – | inactive: -7.33% |
| O=C(Nc1cccc(Br)c1)c1ccccc1-c1ccccc1 | inconclusive: 35.5 µM [inhibitor, single point] | – |

Quoted from the listing.
CCOC(=O)C1=C(c2ccccc2)OC(N)=C(C#N)C1c1ccc(Br)s1 (stereo not given) – Potency: inconclusive: 17.8 µM [activator, single point]
N#Cc1cc(NC(=O)c2ccc(F)cc2)c(=O)n2c1[nH]c1ccccc12 – Potency: active: 14.1 µM
